Reference: publication PMC5309860 (2017)
Results are given in words; binding and its absence hold for the method and conditions named. In cells and extracts the contact can be indirect. Some binding calls cover weakened binding; strength is not graded here. For some of these results: Where a sequence is shown, tags or fusion partners need not be part of it.

Sequences of proteins named here, by UniProt entry; tags and fusion partners are left off.
UniProt P25095: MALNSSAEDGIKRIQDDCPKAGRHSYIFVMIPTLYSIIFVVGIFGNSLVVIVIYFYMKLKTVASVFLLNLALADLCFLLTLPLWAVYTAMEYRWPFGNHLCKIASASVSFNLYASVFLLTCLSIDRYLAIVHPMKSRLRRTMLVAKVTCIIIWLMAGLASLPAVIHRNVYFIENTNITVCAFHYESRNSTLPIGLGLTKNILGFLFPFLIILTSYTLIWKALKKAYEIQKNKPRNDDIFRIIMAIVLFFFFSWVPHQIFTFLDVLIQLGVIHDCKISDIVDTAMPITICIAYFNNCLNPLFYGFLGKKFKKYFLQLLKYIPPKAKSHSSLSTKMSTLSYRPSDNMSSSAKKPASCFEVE
UniProt P49407: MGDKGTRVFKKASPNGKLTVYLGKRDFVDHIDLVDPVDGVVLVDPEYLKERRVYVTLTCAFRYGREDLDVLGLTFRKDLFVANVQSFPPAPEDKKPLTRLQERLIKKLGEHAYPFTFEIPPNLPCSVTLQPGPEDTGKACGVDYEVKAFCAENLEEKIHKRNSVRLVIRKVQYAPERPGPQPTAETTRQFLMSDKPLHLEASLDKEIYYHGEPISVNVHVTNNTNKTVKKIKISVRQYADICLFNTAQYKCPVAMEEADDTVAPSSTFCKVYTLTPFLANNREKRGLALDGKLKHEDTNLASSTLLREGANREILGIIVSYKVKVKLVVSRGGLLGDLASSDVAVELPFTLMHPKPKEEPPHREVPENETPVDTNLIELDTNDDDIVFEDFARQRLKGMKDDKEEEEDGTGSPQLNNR

Assays:
Experiment in all cases: co-IP; HEK293 cells co-transfected with Flag-AT1R-cherry, TRPC3-GFP (WT/truncations) and HA-β-arrestin-1 (WT/truncations/mutants); starved 12 h, stimulated 1 min with AngII (100 nM), TRV120055 (30 nM) or TRV120027 (100 nM); lysates precipitated with antibody-conjugated beads overnight at 4 °C, western …
TRPC3-GFP 1–759 = biological target: T1, TRPC3-GFP 1–759 (UniProt Q13507)
T1 sequence: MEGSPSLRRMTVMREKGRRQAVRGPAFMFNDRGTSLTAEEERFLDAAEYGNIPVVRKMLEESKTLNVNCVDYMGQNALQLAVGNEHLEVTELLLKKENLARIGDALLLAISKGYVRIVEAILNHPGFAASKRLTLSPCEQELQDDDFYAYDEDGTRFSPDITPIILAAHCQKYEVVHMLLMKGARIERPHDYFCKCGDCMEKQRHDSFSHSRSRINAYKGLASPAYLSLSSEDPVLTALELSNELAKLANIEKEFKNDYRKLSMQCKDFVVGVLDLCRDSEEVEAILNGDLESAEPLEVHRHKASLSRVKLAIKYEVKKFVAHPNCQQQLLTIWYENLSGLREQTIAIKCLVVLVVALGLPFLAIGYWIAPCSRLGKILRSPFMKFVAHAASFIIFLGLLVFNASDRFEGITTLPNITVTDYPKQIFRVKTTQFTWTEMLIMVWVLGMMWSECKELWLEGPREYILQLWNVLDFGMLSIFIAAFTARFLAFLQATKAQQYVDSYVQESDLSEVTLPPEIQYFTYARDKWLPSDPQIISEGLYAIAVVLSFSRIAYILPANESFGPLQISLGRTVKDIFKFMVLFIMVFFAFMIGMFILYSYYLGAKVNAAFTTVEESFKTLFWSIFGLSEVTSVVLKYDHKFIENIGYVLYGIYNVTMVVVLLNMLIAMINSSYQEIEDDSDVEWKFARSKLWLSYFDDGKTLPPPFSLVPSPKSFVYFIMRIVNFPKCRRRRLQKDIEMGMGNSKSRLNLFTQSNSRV

Flag-AT1R-cherry = Flag-AT1R-cherry (UniProt P25095)
TRPC3-GFP 334–848 = biological target: T2, TRPC3-GFP 334–848 (UniProt Q13507)
T2 sequence: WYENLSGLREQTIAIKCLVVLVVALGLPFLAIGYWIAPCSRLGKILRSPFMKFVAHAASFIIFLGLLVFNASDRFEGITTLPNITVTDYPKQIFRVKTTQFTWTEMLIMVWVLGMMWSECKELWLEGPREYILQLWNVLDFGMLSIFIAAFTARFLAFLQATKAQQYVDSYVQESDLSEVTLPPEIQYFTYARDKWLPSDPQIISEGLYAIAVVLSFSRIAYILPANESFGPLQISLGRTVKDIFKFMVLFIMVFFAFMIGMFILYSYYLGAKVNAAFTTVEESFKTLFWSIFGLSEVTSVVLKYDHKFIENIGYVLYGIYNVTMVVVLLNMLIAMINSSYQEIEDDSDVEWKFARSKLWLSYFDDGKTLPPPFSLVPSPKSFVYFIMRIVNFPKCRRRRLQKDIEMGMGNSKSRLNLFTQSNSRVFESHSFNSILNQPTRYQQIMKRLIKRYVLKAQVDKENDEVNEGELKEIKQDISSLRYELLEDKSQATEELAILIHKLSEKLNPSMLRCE

TRPC3-GFP 1–790 = biological target: T3, TRPC3-GFP 1–790 (UniProt Q13507)
T3 sequence: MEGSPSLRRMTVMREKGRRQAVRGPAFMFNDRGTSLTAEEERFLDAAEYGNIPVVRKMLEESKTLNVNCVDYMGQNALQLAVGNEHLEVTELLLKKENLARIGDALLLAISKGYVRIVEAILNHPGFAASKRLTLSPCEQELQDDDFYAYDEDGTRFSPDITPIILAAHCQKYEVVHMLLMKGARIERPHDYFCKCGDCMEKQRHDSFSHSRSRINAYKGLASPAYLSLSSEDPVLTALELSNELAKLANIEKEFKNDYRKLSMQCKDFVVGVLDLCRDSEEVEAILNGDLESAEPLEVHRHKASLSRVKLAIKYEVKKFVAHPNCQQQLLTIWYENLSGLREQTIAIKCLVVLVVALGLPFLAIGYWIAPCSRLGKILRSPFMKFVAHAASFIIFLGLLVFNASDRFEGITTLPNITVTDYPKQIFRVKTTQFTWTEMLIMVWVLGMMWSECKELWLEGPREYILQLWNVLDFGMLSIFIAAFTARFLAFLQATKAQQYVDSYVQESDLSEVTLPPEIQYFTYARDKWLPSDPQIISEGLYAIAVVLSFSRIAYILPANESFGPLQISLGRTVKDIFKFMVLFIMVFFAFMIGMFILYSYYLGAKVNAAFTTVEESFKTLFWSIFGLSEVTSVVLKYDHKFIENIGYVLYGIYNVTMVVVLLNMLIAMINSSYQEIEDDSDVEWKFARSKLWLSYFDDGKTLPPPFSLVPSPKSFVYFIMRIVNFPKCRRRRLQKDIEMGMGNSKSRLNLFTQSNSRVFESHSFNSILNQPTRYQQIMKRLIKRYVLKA

HA-β-arrestin-1 (wild type) (from UniProt P49407 1-418)
binding (TRPC3-GFP 1–759): no binding | binding (Flag-AT1R-cherry): binds | binding (TRPC3-GFP 334–848): binds | binding (TRPC3-GFP 1–790): binds
